These are yes or no findings as the source states them, for the method shown. Binding seen in cells or lysates may run through a third protein. Where a sequence is shown, tags or fusion partners need not be part of it.
Target: T1, GFP-tagged MtPT1 (Medicago truncatula) (UniProt O22301)
T1 sequence: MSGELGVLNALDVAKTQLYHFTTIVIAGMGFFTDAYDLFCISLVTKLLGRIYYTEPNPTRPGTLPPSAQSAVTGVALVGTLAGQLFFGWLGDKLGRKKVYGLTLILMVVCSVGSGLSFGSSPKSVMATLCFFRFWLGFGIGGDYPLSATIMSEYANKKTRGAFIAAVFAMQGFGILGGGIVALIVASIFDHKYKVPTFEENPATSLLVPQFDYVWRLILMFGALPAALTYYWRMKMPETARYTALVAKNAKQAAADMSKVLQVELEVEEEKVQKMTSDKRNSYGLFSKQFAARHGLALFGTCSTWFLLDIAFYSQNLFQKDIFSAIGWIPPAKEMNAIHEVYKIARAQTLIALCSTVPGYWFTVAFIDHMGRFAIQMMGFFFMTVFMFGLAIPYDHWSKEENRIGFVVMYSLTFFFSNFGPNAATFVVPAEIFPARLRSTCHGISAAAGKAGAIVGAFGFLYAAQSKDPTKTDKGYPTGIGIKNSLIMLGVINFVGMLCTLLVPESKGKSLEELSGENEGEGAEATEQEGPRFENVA
Assay: co-IP; GFP-labeled syntaxins (or GFP-PT1) immunoprecipitated with anti-GFP agarose beads (Chromotek) from RIPA-buffer extracts of mycorrhized Medicago roots, 1 h at 4°C; co-purified 3HA-VAMPs detected by anti-HA western blot; performed twice

| binding | Substance |
| --- | --- |
| no binding | triple HA-tag labeled MtVAMP721e (Medicago truncatula) |
| no binding | triple HA-tag labeled MtVAMP724 (Medicago truncatula) |

Source: PMC7145992
